Out of some 400,000 compounds screened, about 13,000 (3.2%) were called active. The inconclusive results got no clear call from the source; some entries with a clear call stand among them for comparison. The call rests on the fitted dose curve; in most records, active means well fitted cell-killing curve with a large enough effect; inconclusive means small, poorly fitted or top-dose-only effect, or effect the other way; inactive means flat fitted curve, though single readings scatter. A potency beside an inconclusive call is a rough fit, not a confirmed value.
Assay: qHTS assay for MDR1-selective chemotherapeutics: Primary screen using the drug-selected MDR subline cells KB-V1; further: nearly all actives have a fitted effect of over 60% in size
Conditions: KB-V1 MDR cells viability, CellTiter-Glo, 72 h; series mostly up to 46.1 µM
Summary of the method: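 Cytotoxicity toward P-gp-expressing KB-V1 cells was determined as loss of CellTiter-Glo luminescence after 72 h at 37 degrees C. Compounds were tested in quantitative HTS format across a concentration range, with curves fitted to normalized data.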
Potency means the concentration at half of the fitted maximal effect.

SMILES | Potency
CCCCN(C)c1nnc(NC(=O)Nc2cccc(C(C)=O)c2)s1 | inactive
CCn1c(CNC(=O)COc2ccc(C(C)C)cc2)nnc1SCC(=O)Nc1ccccc1F | inconclusive: 20.6 µM [cytotoxic, single point]
CCOC(=O)C1CCCN(C(=O)c2ccc3c(=O)n(CCOC)c(=S)[nH]c3c2)C1 (stereo not drawn) | active: 23.1 µM
Cc1c(Cl)cccc1N=C1NC(=O)CS1 | inactive
O=C(NCc1cc([N+](=O)[O-])ccc1O)c1cccnc1Sc1ccccc1Cl | inactive
O=C(NCCCN1CCCCC1)c1ccc(CS(=O)c2ccc(Cl)cc2)o1 (stereo not drawn) | inconclusive: 6.51 µM [rising, partial curve, poor fit]
O=c1cc(-c2ccccc2)oc2ccc3ccccc3c12 | active: 20.6 µM
Cc1ccc(CN(C(=O)CNC(=O)c2cccs2)C(C(=O)NCC2CCCO2)c2ccccc2)cc1 (stereo not drawn) | inconclusive: 9.2 µM [cytotoxic, partial curve]
CCCCCCCOc1ccc(C(=O)Nc2cccnc2)cc1 | inconclusive: 16.4 µM [cytotoxic, partial curve, poor fit]
Cc1ccc(S(=O)(=O)N(C)C)cc1NC(=O)c1cc(=O)c2ccccc2o1 | inconclusive: 18.4 µM [cytotoxic, partial curve, poor fit]
CCCN1CCC(=O)N([C@H](CSc2ccc(C)cc2)CC(C)C)CC1 | inconclusive: 4.61 µM [rising, full curve, poor fit]
CC(C)CC1Nc2ncnc(N3CCCCC3)c2N(Cc2ccc(Br)cc2)C1=O (stereo not drawn) | inconclusive: 9.2 µM [cytotoxic, partial curve, poor fit]
C=CCN1N=C(/C=C/c2ccc(OC)cc2)CCC1=O | inconclusive: 29.1 µM [cytotoxic, single point]
CC1CC(C)(C)CC2(C1)NC(=O)N(CC(=O)Nc1ccc(N3CCCCC3)cc1)C2=O (stereo not drawn) | inconclusive: 6.51 µM [cytotoxic, partial curve]
N#Cc1ccccc1COC(=O)c1ccc(Br)o1 | inconclusive: 16.4 µM [rising, single point]
COc1ccccc1Cc1c(-c2ccc(Cl)cc2)nc2c(C)cc(Br)cn12 | inconclusive: 29.1 µM [cytotoxic, partial curve, poor fit]
COc1ccc(OCCC(=O)NCCN2CCOCC2)cc1 | inconclusive: 14.6 µM [cytotoxic, partial curve, poor fit]
O=C(Nc1ccccc1)Nc1ccccn1 | inactive
COc1ccc(-c2nc3c4c(ncn3n2)-c2ccccc2CC42CCCC2)cc1 | inactive
Cc1nn(CC(=O)NCCc2ccc(Cl)cc2)c(=O)c2cc3cc(F)ccc3n12 | inactive
O=C(COC(=O)CCS(=O)(=O)c1ccc(Cl)cc1)NC1CCCCC1 | inconclusive: 7.31 µM [rising, partial curve, poor fit]
O=C(C1CCC1)N1CCN(S(=O)(=O)c2ccc(Br)cc2Cl)CC1 | inactive
COc1ccc(C2/C(=C(\O)c3ccc4c(c3)OCCO4)C(=O)C(=O)N2CCCn2ccnc2)cc1 (stereo not drawn) | inconclusive: 29.1 µM [rising, single point]
O=c1c2sc(-c3ccccc3)cc2nc2n1CCC2 | inconclusive: 16.4 µM [cytotoxic, single point]
Cc1c(Cl)c([N+](=O)[O-])nn1CCCC(=O)Nc1cc(Cl)ccc1Cl | inconclusive: 20.6 µM [cytotoxic, partial curve, poor fit]

SMILES | Potency
COc1ccc(CC(=O)Nc2cc(S(=O)(=O)N3CCOCC3)ccc2N2CCCC2)cc1 | inactive
CCCc1cc(N2CCN(c3cc(Cl)ccc3C)CC2)n2cnnc2n1 | inconclusive: 9.2 µM [cytotoxic, partial curve, poor fit]
CN(c1ccccc1)S(=O)(=O)c1ccc(NC(=O)c2ccc(-c3ccccc3)cc2)cc1 | inconclusive: 23.1 µM [cytotoxic, single point]
CCN(CC)S(=O)(=O)c1ccc(N2CCCC2)c(NS(=O)(=O)c2ccc(OC)cc2)c1 | active: 4.11 µM
O=C(CN1CCC(NC(=O)c2ccco2)CC1)Nc1cccc2ccccc12 | inconclusive: 14.6 µM [cytotoxic, partial curve]
COc1ccc(CC(=O)c2c(O)cc(O)cc2O)cc1OC | inconclusive: 18.4 µM [cytotoxic, single point]
COc1cccc(CN2CCC2(C)C(=O)Nc2cccc3cccnc23)c1F (stereo not drawn) | active: 7.31 µM
Cc1ccc(C=Nc2ccccc2C(N)=O)s1 | inactive
Cc1ccc(-c2nc(CS(=O)(=O)CC(=O)N3CCc4ccccc4C3)c(C)o2)cc1 | inconclusive: 29.1 µM [cytotoxic, single point]
Cc1ccc(NC(=O)C2CCCN(S(=O)(=O)c3cccc4nonc34)C2)cc1 (stereo not drawn) | inactive
COc1cc2c(cc1OC)C(C(=O)NCc1ccco1)C1c3ccccc3CCN1C2=O (stereo not drawn) | active: 14.6 µM
COc1ccccc1C(=O)Nn1c(C2CCC2)nc2ccccc2c1=O | inconclusive: 6.51 µM [cytotoxic, partial curve]
O=C(NNC(=O)C1CCCO1)c1ccc(F)cc1 (stereo not drawn) | inactive
COc1ccc(C2C(C#N)=C(N)Oc3cc(O)ccc32)cc1 (stereo not drawn) | inactive
O=C(C1CC(=O)N(C2CCCC2)C1)N1CCC(Cc2ccccc2)CC1 (stereo not drawn) | active: 13 µM
CCCCOc1ccc(S(=O)(=O)NCc2csc(C)n2)cc1 | inconclusive: 16.4 µM [cytotoxic, single point]
CC1(C)SC(=S)N(c2ccccc2)C1/[N+]([O-])=C/c1cccc([N+](=O)[O-])c1 (stereo not drawn) | inconclusive: 20.6 µM [cytotoxic, single point]
CCc1nn2c(=O)cc(COc3ccc(/C=C(\C#N)C(=O)Nc4ccc(F)cc4)cc3OC)nc2s1 | inconclusive: 5.17 µM [rising, partial curve]
O=C(COc1ccccc1)NCCc1csc(-c2ccc(Cl)cc2)n1 | inactive
O=C(CSc1nc2scc(-c3ccco3)c2c(=O)n1-c1ccccc1)N1CCOCC1 | inactive
Cc1ccnc(NC(=O)c2ccc(S(=O)(=O)N3CCCCCC3)cc2)c1 | inconclusive: 6.51 µM [cytotoxic, partial curve]
COCCNC(=O)c1cc2c(=O)n3cccc(C)c3nc2n1C | active: 5.8 µM
COc1cc(C(=O)Nc2ccc3nc(N4CCOCC4)sc3c2)cc(OC)c1OC | inconclusive: 29.1 µM [cytotoxic, single point]
COc1ccc2c(C)cc(SCC(=O)NC3CCCC3)nc2c1 | inactive
COc1ccc(CCNC(=O)CSc2nnc(-c3ccc(F)cc3)c3ccccc23)cc1OC | active: 7.31 µM

SMILES | Potency
COc1ccc(C(O)c2ncc(-c3cccc(OCc4ccccc4)c3)[nH]2)cc1F (stereo not drawn) | inactive
Cc1ccc(NC(=O)CN(C)C(=O)c2ccc(NS(=O)(=O)c3cccc([N+](=O)[O-])c3)cc2)cc1 | inactive
CCOC(=O)C1(Cc2ccccc2)CCN(C2Cc3ccccc3C2)CC1 | inconclusive: 29.1 µM [cytotoxic, single point]
Cc1ccccc1Nc1nc(N)nc(CCl)n1 | inactive
O=C(CN1CCN(Cc2ccccc2)CC1)Nc1cccc(Cl)c1 | inconclusive: 11.6 µM [cytotoxic, partial curve]
Cc1cc(C)c(C#N)c(Oc2ccccc2)n1 | inconclusive: 14.6 µM [rising, partial curve]
CCOC(=O)Cc1csc(NC(=O)c2ccc3ccccc3n2)n1 | inconclusive: 18.4 µM [cytotoxic, single point]
COC(C(=O)Nc1ccc(S(=O)(=O)Nc2ccc(C)c(C)c2)cc1)c1ccccc1 (stereo not drawn) | active: 20.6 µM
Cc1ccccc1-c1nn2c(=O)cc(CN3CCN(C(=O)/C=C/c4ccccc4)CC3)nc2s1 | inactive
Cc1cccc(N2C(N)=C(C#N)C(C#N)(C#N)C2c2ccccc2)c1 (stereo not drawn) | inconclusive: 29.1 µM [cytotoxic, single point]
CCN(CC)S(=O)(=O)c1ccc2c(c1)nc(SCC(=O)NCC1CCCO1)n2CC (stereo not drawn) | inactive
O=C(CCS(=O)(=O)c1cccc2nonc12)Nc1c(F)cccc1F | inactive
Cc1ccc(NC(=O)/C(=C/c2cccc([N+](=O)[O-])c2)NC(=O)C2CCCCC2)cc1 | inactive
CCOc1cc(Br)c(C(=O)O)cc1OCC | inactive
CCOC(=O)c1ccc(NC(=O)N2CCN(S(C)(=O)=O)CC2)cc1 | inconclusive: 18.4 µM [cytotoxic, partial curve, poor fit]
Cc1ccccc1OC(C)C(=O)NCCNC(=O)C(C)Oc1ccccc1C (stereo not drawn) | inactive
COc1cccc(N2CCN(C(=O)c3cccc(-n4c(C)nc5cccnc54)c3)CC2)c1 | inconclusive: 6.51 µM [cytotoxic, full curve, poor fit]
CC1CCN(C(=O)c2[nH]cnc2C(=O)Nc2cccc(Cl)c2)CC1 | inactive
Cc1ccccc1NC1=C(Cl)C(=O)N(C2CCCCC2)C1=O | inconclusive: 23.1 µM [cytotoxic, single point]
Fc1ccc(-c2cc(C(F)(F)F)nc(-n3cc(Cl)cn3)n2)cc1 | inconclusive: 18.4 µM [cytotoxic, partial curve]
O=C(O)c1cccc2cccc(-c3c4ccc(=O)c(O)c-4oc4c(O)c(O)ccc34)c12 | inactive
Cc1ccc(NC(=O)C2CC(=O)NC(Nc3cccc(C)c3)=N2)cc1 (stereo not drawn) | inconclusive: 16.4 µM [rising, single point]
C=Cc1ccc(Cn2c(C(=O)O)c(CNC3CCCCC3)c3ccc(C)cc32)cc1 | inconclusive: 4.11 µM [rising, full curve]

Arranged by number of heavy atoms (smallest number first): part of the list above
SMILES | Potency
CCCN1CCC(=O)N([C@H](CSc2ccc(C)cc2)CC(C)C)CC1 | inconclusive: 4.61 µM [rising, full curve, poor fit]
CCCc1cc(N2CCN(c3cc(Cl)ccc3C)CC2)n2cnnc2n1 | inconclusive: 9.2 µM [cytotoxic, partial curve, poor fit]
COc1ccccc1Cc1c(-c2ccc(Cl)cc2)nc2c(C)cc(Br)cn12 | inconclusive: 29.1 µM [cytotoxic, partial curve, poor fit]
CCN(CC)S(=O)(=O)c1ccc(N2CCCC2)c(NS(=O)(=O)c2ccc(OC)cc2)c1 | active: 4.11 µM
